Measurements from PMC11170954, “Effect of Peptide–Polymer Host–Guest Electrostatic Interactions on Self-Assembling Peptide Hydrogels Structural and Mechanical Properties and Polymer Diffusivity” (Biomacromolecules, 2024).
Ends that are not written are not given here.

Experiment: Oscillatory shear rheology and injectability
Format: physicochemical
Details: 0.2% strain, 1 Hz, 8–20 mg mL^–1, pH 7

Row | Sequence | exponent of power law G′ ∝ C^n (storage modulus vs peptide concentration)
1 | EFKFEFKFE [E(FKFE)2] | 2.3
2 | KFEFKFEFK [K(FEFK)2] | 3.3
